Source: paper doi:10.1101/2021.12.17.473155
Results are given in words; binding and its absence hold for the method and conditions named. In cells and extracts the contact can be indirect. Some binding calls cover weakened binding; strength is not graded here. For part of these data: Sequences can lack the tags named with a protein. One block for each molecule: values may come before it.

The chains behind the UniProt entries cited, without tags or fusion partners.
UniProt O15550: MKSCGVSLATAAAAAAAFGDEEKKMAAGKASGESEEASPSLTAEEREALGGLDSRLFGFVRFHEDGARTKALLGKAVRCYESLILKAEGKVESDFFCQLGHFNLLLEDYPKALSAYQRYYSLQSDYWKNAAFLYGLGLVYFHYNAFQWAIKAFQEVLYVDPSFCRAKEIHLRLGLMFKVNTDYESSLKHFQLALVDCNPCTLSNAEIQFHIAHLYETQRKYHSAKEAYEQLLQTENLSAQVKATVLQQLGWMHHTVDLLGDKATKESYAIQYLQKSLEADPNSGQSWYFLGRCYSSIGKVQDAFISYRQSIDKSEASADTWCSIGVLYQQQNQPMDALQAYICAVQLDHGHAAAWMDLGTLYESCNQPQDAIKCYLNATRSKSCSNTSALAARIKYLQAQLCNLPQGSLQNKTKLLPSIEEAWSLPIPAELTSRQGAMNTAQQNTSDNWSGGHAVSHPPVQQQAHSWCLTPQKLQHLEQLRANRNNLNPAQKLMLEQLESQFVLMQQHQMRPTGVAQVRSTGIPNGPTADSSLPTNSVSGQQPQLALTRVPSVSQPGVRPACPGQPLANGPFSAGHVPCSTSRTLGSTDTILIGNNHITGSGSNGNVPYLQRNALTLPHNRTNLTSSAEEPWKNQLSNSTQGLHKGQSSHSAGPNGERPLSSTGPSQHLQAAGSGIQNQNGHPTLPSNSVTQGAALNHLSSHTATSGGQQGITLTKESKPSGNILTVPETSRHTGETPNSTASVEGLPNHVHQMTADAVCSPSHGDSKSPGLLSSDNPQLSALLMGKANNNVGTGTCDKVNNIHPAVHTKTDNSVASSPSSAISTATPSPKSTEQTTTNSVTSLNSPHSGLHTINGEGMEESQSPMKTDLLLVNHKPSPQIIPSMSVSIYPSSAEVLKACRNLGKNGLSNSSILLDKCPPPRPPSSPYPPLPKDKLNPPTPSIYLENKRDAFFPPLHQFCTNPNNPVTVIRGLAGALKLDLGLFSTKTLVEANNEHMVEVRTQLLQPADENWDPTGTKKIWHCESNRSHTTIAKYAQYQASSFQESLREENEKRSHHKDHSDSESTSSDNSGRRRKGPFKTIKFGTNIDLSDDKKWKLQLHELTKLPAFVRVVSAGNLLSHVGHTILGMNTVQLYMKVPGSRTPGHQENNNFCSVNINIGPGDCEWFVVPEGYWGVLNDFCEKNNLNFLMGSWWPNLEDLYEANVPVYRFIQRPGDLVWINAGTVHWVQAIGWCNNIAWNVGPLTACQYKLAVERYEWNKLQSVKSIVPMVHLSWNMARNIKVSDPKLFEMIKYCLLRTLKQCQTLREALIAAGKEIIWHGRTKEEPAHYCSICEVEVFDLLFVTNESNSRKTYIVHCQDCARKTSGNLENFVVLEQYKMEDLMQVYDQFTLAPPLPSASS
UniProt Q92769: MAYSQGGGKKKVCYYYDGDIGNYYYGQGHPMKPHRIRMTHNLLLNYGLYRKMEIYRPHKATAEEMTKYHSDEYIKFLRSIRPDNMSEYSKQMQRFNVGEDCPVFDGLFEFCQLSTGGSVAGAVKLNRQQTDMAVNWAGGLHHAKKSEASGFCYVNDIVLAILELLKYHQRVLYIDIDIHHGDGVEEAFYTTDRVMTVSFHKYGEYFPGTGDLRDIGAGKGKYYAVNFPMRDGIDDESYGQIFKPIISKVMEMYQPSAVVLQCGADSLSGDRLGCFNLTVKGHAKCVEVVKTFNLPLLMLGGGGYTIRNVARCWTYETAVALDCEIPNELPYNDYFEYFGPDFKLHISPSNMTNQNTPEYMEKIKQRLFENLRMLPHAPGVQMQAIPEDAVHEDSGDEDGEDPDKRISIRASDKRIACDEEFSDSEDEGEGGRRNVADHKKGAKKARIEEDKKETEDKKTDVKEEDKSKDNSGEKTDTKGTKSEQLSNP
UniProt Q15291: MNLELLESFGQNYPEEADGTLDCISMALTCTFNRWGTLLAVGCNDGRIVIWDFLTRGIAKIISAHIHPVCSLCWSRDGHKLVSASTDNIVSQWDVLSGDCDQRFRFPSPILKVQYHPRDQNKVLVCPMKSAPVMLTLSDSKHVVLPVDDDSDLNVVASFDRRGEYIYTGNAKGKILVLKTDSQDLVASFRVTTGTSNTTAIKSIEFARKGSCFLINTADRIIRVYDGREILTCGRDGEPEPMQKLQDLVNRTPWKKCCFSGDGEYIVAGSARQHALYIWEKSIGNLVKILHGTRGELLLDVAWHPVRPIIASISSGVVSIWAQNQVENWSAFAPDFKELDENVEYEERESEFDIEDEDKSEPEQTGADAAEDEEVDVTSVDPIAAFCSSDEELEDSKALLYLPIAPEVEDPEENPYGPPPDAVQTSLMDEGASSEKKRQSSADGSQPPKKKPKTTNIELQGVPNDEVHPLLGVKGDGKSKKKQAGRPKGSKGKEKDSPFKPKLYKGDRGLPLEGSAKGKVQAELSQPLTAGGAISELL
UniProt Q13547: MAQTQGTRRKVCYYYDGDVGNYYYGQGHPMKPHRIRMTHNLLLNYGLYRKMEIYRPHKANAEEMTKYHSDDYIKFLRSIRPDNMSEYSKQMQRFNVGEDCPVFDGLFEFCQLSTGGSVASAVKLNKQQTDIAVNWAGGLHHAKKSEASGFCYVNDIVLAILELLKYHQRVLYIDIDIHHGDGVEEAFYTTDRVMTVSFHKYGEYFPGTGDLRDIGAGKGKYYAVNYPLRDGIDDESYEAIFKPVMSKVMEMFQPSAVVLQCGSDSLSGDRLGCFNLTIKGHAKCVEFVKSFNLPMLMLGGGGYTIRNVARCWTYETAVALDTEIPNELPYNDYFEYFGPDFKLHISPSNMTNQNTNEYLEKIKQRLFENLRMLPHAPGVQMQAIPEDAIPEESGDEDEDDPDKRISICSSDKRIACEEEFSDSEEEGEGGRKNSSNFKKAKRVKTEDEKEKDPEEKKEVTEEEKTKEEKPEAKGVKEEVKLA
UniProt Q92830: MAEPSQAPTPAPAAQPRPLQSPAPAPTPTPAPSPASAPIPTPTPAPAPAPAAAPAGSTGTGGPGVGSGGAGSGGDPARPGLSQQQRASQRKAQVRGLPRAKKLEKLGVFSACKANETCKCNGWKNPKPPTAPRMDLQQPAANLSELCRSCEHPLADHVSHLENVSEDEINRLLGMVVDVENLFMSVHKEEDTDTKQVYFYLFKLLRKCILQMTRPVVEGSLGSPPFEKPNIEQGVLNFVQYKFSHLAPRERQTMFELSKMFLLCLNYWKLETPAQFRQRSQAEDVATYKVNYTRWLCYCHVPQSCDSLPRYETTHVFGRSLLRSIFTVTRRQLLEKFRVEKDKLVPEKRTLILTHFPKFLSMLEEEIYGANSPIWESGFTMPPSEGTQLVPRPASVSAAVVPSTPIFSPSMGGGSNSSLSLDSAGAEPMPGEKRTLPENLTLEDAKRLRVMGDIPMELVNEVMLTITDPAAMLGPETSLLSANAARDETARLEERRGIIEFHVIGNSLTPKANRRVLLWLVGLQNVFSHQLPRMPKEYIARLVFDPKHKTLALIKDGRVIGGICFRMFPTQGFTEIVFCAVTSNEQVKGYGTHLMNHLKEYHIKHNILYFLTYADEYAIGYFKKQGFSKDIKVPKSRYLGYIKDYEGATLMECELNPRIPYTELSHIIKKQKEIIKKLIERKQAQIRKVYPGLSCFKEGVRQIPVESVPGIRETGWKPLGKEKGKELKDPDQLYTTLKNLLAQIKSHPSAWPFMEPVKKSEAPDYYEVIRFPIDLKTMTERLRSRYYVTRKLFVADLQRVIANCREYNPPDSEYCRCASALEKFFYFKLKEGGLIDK

Columns and labels:
[1] = target: T1, FLAG-ELMSAN1 (UniProt Q6PJG2); assay: co-IP
T1 sequence: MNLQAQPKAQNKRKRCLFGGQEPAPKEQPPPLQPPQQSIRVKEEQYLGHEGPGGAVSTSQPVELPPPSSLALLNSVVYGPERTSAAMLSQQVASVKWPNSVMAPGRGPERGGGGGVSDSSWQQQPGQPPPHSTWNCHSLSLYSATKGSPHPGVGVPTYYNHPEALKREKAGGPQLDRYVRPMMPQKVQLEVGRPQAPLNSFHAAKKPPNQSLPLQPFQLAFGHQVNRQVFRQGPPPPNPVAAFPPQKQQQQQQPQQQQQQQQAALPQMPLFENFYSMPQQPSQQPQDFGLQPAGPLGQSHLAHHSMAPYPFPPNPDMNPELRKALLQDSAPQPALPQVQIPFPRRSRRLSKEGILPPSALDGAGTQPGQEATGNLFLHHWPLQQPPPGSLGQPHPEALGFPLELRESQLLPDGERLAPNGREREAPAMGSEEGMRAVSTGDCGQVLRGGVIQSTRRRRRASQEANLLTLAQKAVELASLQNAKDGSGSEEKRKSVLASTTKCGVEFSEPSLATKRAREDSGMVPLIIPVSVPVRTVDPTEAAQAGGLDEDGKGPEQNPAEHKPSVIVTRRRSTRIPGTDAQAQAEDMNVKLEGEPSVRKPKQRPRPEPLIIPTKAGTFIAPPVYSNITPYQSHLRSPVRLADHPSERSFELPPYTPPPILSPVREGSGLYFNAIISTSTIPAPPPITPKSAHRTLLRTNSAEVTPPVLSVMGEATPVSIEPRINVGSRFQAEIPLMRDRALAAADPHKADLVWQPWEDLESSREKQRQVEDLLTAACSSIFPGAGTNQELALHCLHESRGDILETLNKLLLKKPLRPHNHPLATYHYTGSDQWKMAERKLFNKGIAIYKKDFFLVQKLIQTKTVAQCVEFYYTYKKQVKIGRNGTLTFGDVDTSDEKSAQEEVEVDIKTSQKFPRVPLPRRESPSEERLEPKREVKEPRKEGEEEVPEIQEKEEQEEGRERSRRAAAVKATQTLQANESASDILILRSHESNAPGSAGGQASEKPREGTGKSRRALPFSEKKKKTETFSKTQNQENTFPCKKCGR

[2] = target: T2, FLAG-DNTTIP1 (UniProt Q9H147); assay: co-IP
T2 sequence: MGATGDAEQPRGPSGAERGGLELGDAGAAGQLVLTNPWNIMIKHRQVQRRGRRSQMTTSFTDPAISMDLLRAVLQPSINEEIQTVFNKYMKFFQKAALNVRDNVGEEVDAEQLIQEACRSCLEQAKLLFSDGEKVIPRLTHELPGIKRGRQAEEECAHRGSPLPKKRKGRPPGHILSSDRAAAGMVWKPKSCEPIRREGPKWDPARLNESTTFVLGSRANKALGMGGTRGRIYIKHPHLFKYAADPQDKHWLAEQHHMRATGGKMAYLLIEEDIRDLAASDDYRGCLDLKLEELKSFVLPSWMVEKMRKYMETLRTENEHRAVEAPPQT

[3] = target: FLAG-UTX (UniProt O15550); assay: co-IP
[4] = target: FLAG-UTX (UniProt O15550); assay: co-sedimentation
[5] = target: FLAG-UTX (UniProt O15550); assay: co-IP; remark: listed apart in the source
[6] = target: FLAG-UTX (UniProt O15550); assay: co-IP; remark: listed apart in the source

binding [1]: binds
binding [2]: binds
Molecule: HDAC2 (from UniProt Q92769 1-488) (enzyme)

binding [3]: binds
binding [4]: binds
Molecule: RBBP5 (from UniProt Q15291 1-538)

binding [1]: binds
Molecule: HDAC1 (from UniProt Q13547 1-482) (enzyme)

binding [3]: no binding
Molecule: KAT2A (from UniProt Q92830 1-837) (enzyme)

binding [5]: binds
binding [4]: binds
binding [6]: binds
B1: ELMSAN1 (protein, UniProt Q6PJG2 1-1045)
chain: T1 sequence
